{"source": "patent US20240042018A1", "binders": {"B1": {"name": "I53_dn5B_2gly trimer (designed binder)", "chain": "EEAELAYLLGELAYKLGEYRIAIRAYRIALKYDNLTAEAWYNLGNAYYKQGRYREAIEYYQKALELDPNNAEAWYNLGNAYYERGEYENATEYYRKALRLDPNNADAMQNLLNAKMREELEEQKLISEEDLHHHHHH", "modifications": "N-linked glycans at PNGS 32-YDNLT-36 and 89-NAT-91"}}, "key": {"I53_dn5A pentamer [1]": {"molecular_target": "I53_dn5A pentamer", "assay": "in vitro nanoparticle assembly, SEC"}, "I53_dn5A pentamer [2]": {"molecular_target": "I53_dn5A pentamer", "assay": "nanoparticle assembly grade, Table 3"}}, "note": "Results are given in words; binding and its absence hold for the method and conditions named. Some binding calls cover weakened binding; strength is not graded here.", "data": [{"binder": "B1", "values": [{"measurement": "binding", "setting": "I53_dn5A pentamer [1]", "value": "binds"}, {"measurement": "binding", "setting": "I53_dn5A pentamer [2]", "value": "binds"}]}]}
